Experimental data published in paper doi:10.1101/2020.01.08.898304 (bioRxiv, 2020).
Like-named read-outs stand apart in the source and are kept apart here. No constants are given. Whether binding was seen depends on the method and setting. For some assays here: Binding seen in cells or lysates may run through a third protein. Some results given as binding are weak or reduced against the parent protein; the word gives no strength. For some assays here: Sequences can lack the tags named with a protein. Values belong to the molecule of their own block, whether it stands above or below them.

The chains behind the UniProt entries cited, without tags or fusion partners. Where a name states a change or a piece, a line headed by the entry shows the natural chain unless it says otherwise. A line that says so, or that is headed by a name, gives the form on record, which may keep a tag or linker. Residues count along the entry.
KID (102-165 aa) domain of CREB, His-SUMO-tagged (P15337, residues 88-151): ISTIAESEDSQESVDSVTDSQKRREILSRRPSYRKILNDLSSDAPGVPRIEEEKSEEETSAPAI
CREB-GFP (P15337-1, form named): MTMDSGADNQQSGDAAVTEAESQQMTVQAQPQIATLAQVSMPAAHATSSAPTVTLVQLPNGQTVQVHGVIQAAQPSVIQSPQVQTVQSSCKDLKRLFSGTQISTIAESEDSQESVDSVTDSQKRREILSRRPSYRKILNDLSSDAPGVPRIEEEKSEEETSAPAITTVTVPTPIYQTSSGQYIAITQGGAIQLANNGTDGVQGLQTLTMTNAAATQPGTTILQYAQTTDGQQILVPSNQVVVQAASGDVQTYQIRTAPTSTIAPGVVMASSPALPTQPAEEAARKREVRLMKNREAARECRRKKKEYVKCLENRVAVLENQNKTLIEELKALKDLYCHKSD

How the values were obtained:
Jacob-1-228-GFP [1] = target: T1, Jacob-1-228-GFP (UniProt Q9EPI6); assay: FRET or BRET
T1 sequence: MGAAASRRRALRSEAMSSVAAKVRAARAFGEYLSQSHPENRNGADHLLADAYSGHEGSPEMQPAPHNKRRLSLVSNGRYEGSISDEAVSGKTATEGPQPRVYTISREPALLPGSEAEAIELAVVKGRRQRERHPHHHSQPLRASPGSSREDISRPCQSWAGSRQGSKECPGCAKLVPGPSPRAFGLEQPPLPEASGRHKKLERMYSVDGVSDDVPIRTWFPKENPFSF

Jacob-262-532-GFP = target: T2, Jacob-262-532-GFP (UniProt Q9EPI6); assay: FRET or BRET
T2 sequence: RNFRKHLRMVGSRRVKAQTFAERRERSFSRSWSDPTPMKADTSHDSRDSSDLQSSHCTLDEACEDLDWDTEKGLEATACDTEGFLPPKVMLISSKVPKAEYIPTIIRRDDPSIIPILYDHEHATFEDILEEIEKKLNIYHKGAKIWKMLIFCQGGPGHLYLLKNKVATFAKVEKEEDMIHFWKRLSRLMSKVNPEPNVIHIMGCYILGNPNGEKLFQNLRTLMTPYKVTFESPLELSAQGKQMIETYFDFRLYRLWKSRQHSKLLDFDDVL

Jacob-GFP = target: T3, Jacob-GFP (UniProt Q9EPI6); assay: FRET or BRET
T3 sequence: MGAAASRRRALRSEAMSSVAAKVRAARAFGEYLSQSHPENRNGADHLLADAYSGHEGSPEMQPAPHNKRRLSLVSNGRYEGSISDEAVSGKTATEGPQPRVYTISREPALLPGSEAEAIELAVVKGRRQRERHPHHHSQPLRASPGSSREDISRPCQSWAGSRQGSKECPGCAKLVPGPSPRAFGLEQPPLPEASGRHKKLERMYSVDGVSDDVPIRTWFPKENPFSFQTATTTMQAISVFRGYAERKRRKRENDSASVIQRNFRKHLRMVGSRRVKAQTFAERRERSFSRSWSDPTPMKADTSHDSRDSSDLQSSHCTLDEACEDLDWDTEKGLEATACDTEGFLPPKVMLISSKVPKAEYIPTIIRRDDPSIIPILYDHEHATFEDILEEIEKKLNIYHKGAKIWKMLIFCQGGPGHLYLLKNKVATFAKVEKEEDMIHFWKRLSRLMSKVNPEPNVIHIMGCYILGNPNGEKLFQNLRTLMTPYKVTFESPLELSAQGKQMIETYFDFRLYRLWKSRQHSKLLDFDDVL

LMO4-GFP = target: T4, LMO4-GFP (UniProt P61968); assay: FRET or BRET
T4 sequence: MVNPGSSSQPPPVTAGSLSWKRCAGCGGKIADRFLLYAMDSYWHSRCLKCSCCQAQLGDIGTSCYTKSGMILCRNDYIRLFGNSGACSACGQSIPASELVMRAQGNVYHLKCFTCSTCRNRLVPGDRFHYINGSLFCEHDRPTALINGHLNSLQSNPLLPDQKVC

[2] = target: T5, N-terminus of Jacob (117-172 aa), pull-down fragment (UniProt Q9EPI6); assay: pull-down
T5 sequence: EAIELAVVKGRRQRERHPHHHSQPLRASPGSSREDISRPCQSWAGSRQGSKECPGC

CREB-GFP = CREB-GFP (UniProt P15337); assay: FRET or BRET
Jacob-1-228-GFP [3] = target: T1, Jacob-1-228-GFP; assay: FRET or BRET; remark: listed apart in the source
Jacob-1-246-GFP = target: T6, Jacob-1-246-GFP (UniProt Q9EPI6); assay: co-IP
T6 sequence: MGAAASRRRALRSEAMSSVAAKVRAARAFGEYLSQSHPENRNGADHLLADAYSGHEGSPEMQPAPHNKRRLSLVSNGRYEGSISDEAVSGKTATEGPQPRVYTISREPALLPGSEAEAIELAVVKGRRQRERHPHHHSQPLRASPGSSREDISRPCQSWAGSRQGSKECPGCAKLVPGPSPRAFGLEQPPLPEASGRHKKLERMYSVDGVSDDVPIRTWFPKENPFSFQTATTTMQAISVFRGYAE

Jacob-173-246-GFP = target: T7, Jacob-173-246-GFP (UniProt Q9EPI6); assay: co-IP
T7 sequence: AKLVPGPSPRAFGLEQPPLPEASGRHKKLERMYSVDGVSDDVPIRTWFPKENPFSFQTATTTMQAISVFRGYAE

Jacob-247-532-GFP = target: T8, Jacob-247-532-GFP (UniProt Q9EPI6); assay: co-IP
T8 sequence: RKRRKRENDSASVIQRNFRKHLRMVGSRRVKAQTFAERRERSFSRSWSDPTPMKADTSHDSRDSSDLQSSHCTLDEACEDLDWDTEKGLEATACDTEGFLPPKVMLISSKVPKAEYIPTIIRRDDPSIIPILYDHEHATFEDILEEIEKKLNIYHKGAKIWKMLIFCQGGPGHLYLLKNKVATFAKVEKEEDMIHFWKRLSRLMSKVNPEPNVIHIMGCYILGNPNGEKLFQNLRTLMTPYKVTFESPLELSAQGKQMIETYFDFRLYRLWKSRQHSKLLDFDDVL

Jacob-45-172-GFP = target: T9, Jacob-45-172-GFP (UniProt Q9EPI6); assay: co-IP
T9 sequence: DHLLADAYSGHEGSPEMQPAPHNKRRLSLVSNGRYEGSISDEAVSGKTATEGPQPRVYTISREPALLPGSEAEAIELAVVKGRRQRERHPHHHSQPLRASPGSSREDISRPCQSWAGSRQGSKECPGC

- binding (Jacob-1-228-GFP [1]): binds
- binding (Jacob-262-532-GFP): binds
- binding (Jacob-GFP): binds
- binding (LMO4-GFP): binds
Molecule: CREB-tagRFP (from UniProt P15337-1 1-341)

- binding [2]: no binding
Molecule: KID (102-165 aa) domain of CREB, His-SUMO-tagged (from UniProt P15337-1 102-165) (domain or fragment)

- binding (CREB-GFP): binds
- binding (Jacob-1-228-GFP [3]): binds
- binding (Jacob-1-246-GFP): binds
- binding (Jacob-173-246-GFP): binds
- binding (Jacob-247-532-GFP): no binding
- binding (Jacob-45-172-GFP): no binding
B1: LIM1-1-80-tagRFP (domain or fragment, UniProt P61968 1-80)
chain: MVNPGSSSQPPPVTAGSLSWKRCAGCGGKIADRFLLYAMDSYWHSRCLKCSCCQAQLGDIGTSCYTKSGMILCRNDYIRL
